PubChem BioAssay AID1224830 | NIAID | 2016
Assay: 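Genes whose knock-down alters the TNF-alpha reporter response to LPS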 (primary screen). System: human THP-1 monocytic leukaemia cells, TNF dual-luciferase reporter clone, PMA-differentiated to macrophage-like cells. Reagent: siRNA pool against human genes, 50 nM. Duration: LPS for 4 h, given about 3 days after siRNA transfection. Challenge: bacterial LPS (TLR4 ligand), 10 ng/ml. Read-out: 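Ratio of firefly to renilla light, scaled to the plate median and expressed as a robust z-score per replicate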. Reading the numbers: TNF reporter robust z-score: higher = stronger TNF reporter response to LPS. Active means: 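a well is active when its z-score exceeds 2.8 or falls below -1.5; control wells carry no call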.
Shown is an unselected part of about 18,000 reagents tested. Over the whole deposit, about 2,900 (16%) were called active. 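Calls are made per well; low scores hint the gene aids the LPS response, high scores that it dampens it.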 Unmarked entries are inactive. Repeated entries: four replicate wells of each siRNA pool.

target gene	TNF reporter robust z-score
PLEKHJ1	-0.95
PLEKHJ1	-0.54
PLEKHJ1	-0.65
PLEKHJ1	-0.57
KRAS	-1.87 (active)
KRAS	-1.7 (active)
KRAS	-1.89 (active)
KRAS	-1.65 (active)
SYCN	0.67
SYCN	1.16
SYCN	0.73
SYCN	0.99
SBSN	-1.77 (active)
SBSN	-1.61 (active)
SBSN	-1.38
SBSN	-1.35
PGLYRP2	-0.45
PGLYRP2	0.18
PGLYRP2	-1.26
PGLYRP2	0.24
NECTIN1	0.86
NECTIN1	-0.55
NECTIN1	-0.39
NECTIN1	-0.46
THEMIS	1.06
THEMIS	1.26
THEMIS	0.91
THEMIS	2.06
BRD2	-1.6 (active)
BRD2	-1.77 (active)
BRD2	-0.28
BRD2	0.76
TENT5C	-0.17
TENT5C	0.39
TENT5C	0
SLX1A	0.8
SLX1A	1.75
SLX1A	-1
SLX1A	0.22
VPS16	-1.14
VPS16	-0.92
VPS16	-1.51 (active)
VPS16	-1.08
PPID	1.44
PPID	0.69
PPID	1.98
PPID	1.77
HSD17B11	0.55
HSD17B11	0.36
HSD17B11	-0.05
HSD17B11	0.17
MX2	-0.07
MX2	-1.03
MX2	-0.67
MX2	-0.52
CSMD2	-0.38
CSMD2	0.01
CSMD2	-0.24
CSMD2	0.49

The list goes on, starting with the last 11 of the part before.
target gene	TNF reporter robust z-score
HSD17B11	0.36
HSD17B11	-0.05
HSD17B11	0.17
MX2	-0.07
MX2	-1.03
MX2	-0.67
MX2	-0.52
CSMD2	-0.38
CSMD2	0.01
CSMD2	-0.24
CSMD2	0.49
TM9SF2	-0.26
TM9SF2	1.3
TM9SF2	-0.68
TM9SF2	0.29
TRIM67	-1.21
TRIM67	-0.2
TRIM67	-1.54 (active)
TRIM67	-0.09
IRF3	0.8
IRF3	1.12
IRF3	1.81
IRF3	0.35
TRPC5	0.42
TRPC5	-0.21
TRPC5	-0.28
TRPC5	-0.72
TMBIM6	0.96
TMBIM6	-0.25
TMBIM6	-0.54
TMBIM6	1.02
TRUB1	0.78
TRUB1	0.39
TRUB1	1.16
TRUB1	0.09
OR2A1	0.34
OR2A1	0.87
OR2A1	-0.54
OR2A1	2.73
DTX1	-1.3
DTX1	-2.46 (active)
DTX1	-0.9
DTX1	-1.51 (active)
CEACAM3	-0.23
CEACAM3	-1.42
CEACAM3	-1.21
CEACAM3	-0.36
STAG3L3	1
STAG3L3	0.98
STAG3L3	-0.06
STAG3L3	2.46
GH1	0.95
GH1	1.69
GH1	-0.11
GH1	-1.4
HLA-DPB1	0.1
HLA-DPB1	0.21
HLA-DPB1	0.28
HLA-DPB1	-0.37
KIF6	-0.82
KIF6	-0.94
KIF6	-0.84
KIF6	-0.58
